Where a name gives a salt, the structure may show the parent alone. Some of the results follow. Baselines shift from plate to plate; read single values as rough.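 HCT116-GFP, a KRAS-mutant, microsatellite-unstable human colorectal cancer line, constantly expresses green fluorescent protein; immune cells were from healthy donors. Cancer cell survival was tracked by live-cell imaging of green fluorescence, and activated immune cells by themselves reduced survival to roughly half.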
The molecules below were run on HCT116-GFP (assay: HCT116-GFP viability (GFP intensity) relative to untreated HCT116-GFP monoculture control, co-culture with activated PBMCs; higher = less cancer cell killing). Settings: culture: co-culture with anti-CD3/IL2 activated PBMCs 1:1; 10 µM; 72 h.

Row | SMILES | HCT116-GFP viability
1 | Clc1ccccc1CN1CCc2sccc2C1 [Ticlopidine hydrochloride] | 28.4%
2 | CO[C@@]1(NC(=O)C2SC(=C(C(N)=O)C(=O)O)S2)C(=O)N2C(C(=O)O)=C(CSc3nnnn3C)CS[C@@H]21 (some centres not stated) [Cefotetan] | 45.4%
3 | CN(C)CCCN1c2ccccc2CCc2ccc(Cl)cc21 [Clomipramine hydrochloride] | 55.6%
4 | Cc1cc(NC(=O)C2=C(O)c3ccccc3S(=O)(=O)N2C)no1 [Isoxicam] | 37.2%
5 | Cc1cc(C(C)(C)CC(C)(C)C)ccc1OCCOCC[N+](C)(C)Cc1ccccc1 [Methyl benzethonium chloride] | 1.72%
6 | C#C[C@]1(OC(C)=O)CC[C@H]2[C@@H]3CCC4=C[C@@H](OC(C)=O)CC[C@@H]4[C@H]3CC[C@@]21C [Ethynodiol diacetate] | 52.7%
7 | Nc1ccc(S(=O)(=O)Nc2ncccn2)cc1 [Sulfadiazine] | 42.1%
8 | CO[C@@]1(NC(=O)C(C(=O)O)c2ccc(O)cc2)C(=O)N2C(C(=O)O)=C(CSc3nnnn3C)CO[C@@H]21 (some centres not stated) [Moxalactam disodium salt] | 81.1%
9 | C#C[C@]1(O)CC[C@H]2[C@@H]3CCC4=CC(=O)CC[C@@H]4[C@H]3CC[C@@]21C [Norethindrone] | 34.7%
10 | Cc1ccc(N(CC2=NCCN2)c2cccc(O)c2)cc1 [Phentolamine hydrochloride] | 38.9%
11 | CCc1ccc(CCOc2ccc(CC3SC(=O)NC3=O)cc2)nc1 (configuration not stated) [Pioglitazone] | 54.4%
12 | CO[C@H]1/C=C/O[C@@]2(C)Oc3c(C)c(O)c4c(O)c(c(/C=N/N5CCN(C)CC5)c(O)c4c3C2=O)NC(=O)/C(C)=C\C=C\[C@H](C)[C@H](O)[C@@H](C)[C@@H](O)[C@@H](C)[C@H](OC(C)=O)[C@@H]1C [Rifampicin] | 42.8%
13 | Cc1c(Cl)cccc1Nc1ccccc1C(=O)O [Tolfenamic acid] | 38.4%
14 | CCCSc1ccc2[nH]c(NC(=O)OC)nc2c1 [Albendazole] | 2.01%
15 | CC[C@H]1OC(=O)[C@H](C)[C@@H](O[C@H]2C[C@@](C)(OC)[C@@H](O)[C@H](C)O2)[C@H](C)[C@@H](O[C@@H]2O[C@H](C)C[C@H](N(C)C)[C@H]2O)[C@](C)(O)C[C@@H](C)C(=O)[C@H](C)[C@@H](O)[C@]1(C)O [Erythromycin] | 39.7%
16 | c1ccc(CC2=NCCN2)cc1 [Tolazoline hydrochloride] | 57.4%
17 | OCCN1CCN(CCCN2c3ccccc3Sc3ccc(C(F)(F)F)cc32)CC1 [Fluphenazine dihydrochloride] | 13.3%
18 | CC(C)(Oc1ccc(CCNC(=O)c2ccc(Cl)cc2)cc1)C(=O)O [Bezafibrate] | 49%
19 | O=C(O)CCc1nc(-c2ccccc2)c(-c2ccccc2)o1 [Oxaprozin] | 42.7%
20 | O=C1c2ccccc2C(=O)C1c1ccccc1 [Phenindione] | 61.3%
21 | Clc1ccc2c(c1)C(N1CCNCC1)=Nc1ccccc1O2 [Amoxapine] | 38.7%
22 | COc1ccc(CC(C)NCC(O)c2ccc(O)c(NC=O)c2)cc1 (configuration not stated) [Formoterol fumarate] | 53.1%
23 | CCOC(=O)N1CCC(=C2c3ccc(Cl)cc3CCc3cccnc32)CC1 [Loratadine] | 63.2%
24 | COC(=O)[C@H](c1ccccc1Cl)N1CCc2sccc2C1 [Clopidogrel] | 32.1%

Row | SMILES | HCT116-GFP viability
25 | C[C@]12CCC(=O)C=C1CC[C@@H]1[C@@H]2C(=O)C[C@@]2(C)[C@H]1CC[C@]2(O)C(=O)CO [Cortisone] | 33.1%
26 | COCCCC/C(=N\OCCN)c1ccc(C(F)(F)F)cc1 [Fluvoxamine maleate] | 44.1%
27 | CC(=O)[C@@]12O[C@](C)(c3ccccc3)O[C@@H]1C[C@H]1[C@@H]3CCC4=CC(=O)CC[C@]4(C)[C@H]3CC[C@@]12C [Algestone acetophenide] | 39.5%
28 | C[C@H](N[C@@H](CCc1ccccc1)C(=O)O)C(=O)N1CCC[C@H]1C(=O)O [Enalaprilat dihydrate] | 33.5%
29 | CN(C)[C@@H]1C(O)=C(C(N)=O)C(=O)[C@@]2(O)C(O)=C3C(=O)c4c(O)cccc4[C@@](C)(O)[C@H]3C[C@@H]12 [Tetracycline hydrochloride] | 44.5%
30 | CS(=O)(=O)c1ccc([C@@H](O)[C@@H](CF)NC(=O)C(Cl)Cl)cc1 [Florfenicol] | 69.9%
31 | CCN(CC)CCCC(C)Nc1ccnc2cc(Cl)ccc12 (configuration not stated) [Chloroquine diphosphate] | 71%
32 | C=C(CC)C(=O)c1ccc(OCC(=O)O)c(Cl)c1Cl [Ethacrynic acid] | 33%
33 | Nc1ccc(S(=O)(=O)NC(=O)c2ccccc2)cc1 [Sulfabenzamide] | 73.6%
34 | CCCCCN(C)CCC(O)(P(=O)(O)O)P(=O)(O)O [Ibandronate sodium] | 61.1%
35 | C1N2CN3CN1CN(C2)C3 [Methenamine] | 54.6%
36 | O=C1NCCN1c1ncc([N+](=O)[O-])s1 [Niridazole] | 63.1%
37 | CC(C)(C)C(=O)OCOC(=O)[C@@H]1N2C(=O)[C@@H](/N=C/N3CCCCCC3)[C@H]2SC1(C)C [Pivmecillinam hydrochloride] | 50.3%
38 | CNc1ncnc2c1ncn2[C@@H]1O[C@H](CO)[C@@H](O)[C@H]1O [N6-methyladenosine] | 42.9%
39 | OCC(O)CN1CCN(c2ccccc2)CC1 (racemic) [Dropropizine (R,S)] | 31.3%
40 | c1ccc2c(c1)CCCC2C1=NCCN1 (configuration not stated) [Tetrahydrozoline hydrochloride] | 65%
41 | C[C@@H](O)[C@H]1C(=O)N2C(C(=O)O)=C(SCCNC=N)C[C@H]12 [Imipenem] | 44.8%
42 | CC(=O)OCC(=O)NCCCOc1cccc(CN2CCCCC2)c1 [Roxatidine Acetate hydrochloride] | 41.8%
43 | CCn1cc(C(=O)O)c(=O)c2cc(F)c(N3CCNCC3)nc21 [Enoxacin] | 45%
44 | CCCc1ncc(C[n+]2ccccc2C)c(N)n1 [Amprolium hydrochloride] | 42.9%
45 | CC(C(=O)O)c1cccc(Oc2ccccc2)c1 (configuration not stated) [Fenoprofen calcium salt dihydrate] | 88.6%
46 | Oc1ccc(C2CNCCc3c2cc(O)c(O)c3Cl)cc1 (configuration not stated) [Fenoldopam] | 30.6%
47 | OC(Cn1cncn1)(Cn1cncn1)c1ccc(F)cc1F [Fluconazole] | 43.5%
48 | CCCOc1cc(N)ccc1C(=O)OCCN(CC)CC [Propoxycaine hydrochloride] | 37.3%

Row | SMILES | HCT116-GFP viability
49 | NCCc1c[nH]cn1 [Histamine dihydrochloride] | 44.8%
50 | CC[N+](C)(C)c1cccc(O)c1 [Edrophonium chloride] | 38.6%
51 | Cc1cn[nH]c1 [Fomepizole] | 41.6%
52 | CCCCN(CCCC)CCCOC(=O)c1ccc(N)cc1 [Butacaine] | 71.2%
53 | Cc1ccc(C(=O)c2ccc(CC(=O)O)n2C)cc1 [Tolmetin sodium salt dihydrate] | 57.3%
54 | COC(=O)Nc1nc2cc(C(=O)c3cccs3)ccc2[nH]1 [Nocodazole] | 4.89%
55 | CC[N+](C)(CC)CCOC(=O)C1c2ccccc2Oc2ccccc21 [Methantheline bromide] | 34%
56 | CC(=O)OCC(=O)[C@@]1(O)CC[C@H]2[C@@H]3CCC4=CC(=O)CC[C@]4(C)[C@@]3(F)[C@@H](O)C[C@@]21C [Fludrocortisone acetate] | 79.9%
57 | C=CC(N)CCC(=O)O (configuration not stated) [Vigabatrin hydrochloride] | 52.1%
58 | NS(=O)(=O)c1cc(C2(O)NC(=O)c3ccccc32)ccc1Cl (configuration not stated) [Chlorthalidone] | 29.9%
59 | CCN[C@H]1CN(CCCOC)S(=O)(=O)c2sc(S(N)(=O)=O)cc21 [Brinzolamide] | 48.1%
60 | CC(=O)OCC(=O)[C@@]1(O)CC[C@H]2[C@@H]3CCC4=CC(=O)CC[C@]4(C)[C@H]3[C@@H](O)C[C@@]21C [Cortisol acetate] | 87%
61 | Cc1ncc(C[n+]2csc(CCO)c2C)c(N)n1 [Thiamine hydrochloride] | 63.8%
62 | CC(C)c1c(C(=O)Nc2ccccc2)c(-c2ccccc2)c(-c2ccc(F)cc2)n1CC[C@@H](O)C[C@@H](O)CC(=O)O [Atorvastatin] | 20.3%
63 | CCCc1cc(C(N)=S)ccn1 [Prothionamide] | 37.7%
64 | CC(=O)S[C@@H]1CC2=CC(=O)CC[C@]2(C)[C@H]2CC[C@@]3(C)[C@@H](CC[C@@]34CCC(=O)O4)[C@H]12 [Spironolactone] | 52.8%
65 | CC(Cc1cccc(C(F)(F)F)c1)NCCOC(=O)c1ccccc1 (configuration not stated) [Benfluorex] | 72.4%
66 | NNCCc1ccccc1 [Phenelzine sulfate] | 31.9%
67 | C[C@H]1O[C@H](O[C@H]2[C@H](O)[C@@H](O)[C@@H](O[C@H]3[C@H](O)[C@@H](O)C(O)O[C@@H]3CO)O[C@@H]2CO)[C@H](O)[C@@H](O)[C@@H]1N[C@H]1C=C(CO)[C@@H](O)[C@H](O)[C@H]1O (some centres not stated) [Acarbose] | 53.1%
68 | CN1CCC(=C2c3ccccc3C=Cc3ccccc32)CC1 [Cyproheptadine hydrochloride] | 53.7%
69 | N=C(N)NC(=N)NCCc1ccccc1 [Phenformin hydrochloride] | 46.4%
70 | CC(C)(C)NC[C@@H](O)COc1cccc2c1CCCC2=O [(+) -Levobunolol hydrochloride] | 76.5%
71 | CO[C@H]1/C=C/O[C@@]2(C)Oc3c(C)c(O)c4c(O)c(c(/C=N/N5CCN(C6CCCC6)CC5)c(O)c4c3C2=O)NC(=O)/C(C)=C\C=C\[C@H](C)[C@H](O)[C@@H](C)[C@@H](O)[C@@H](C)[C@H](OC(C)=O)[C@@H]1C [Rifapentine] | 41.1%
72 | O=C(O)Cc1ccc(-c2ccccc2)cc1 [Felbinac] | 73.5%

Molecules shown so far with a CF3 group:
Row | SMILES | HCT116-GFP viability
17 | OCCN1CCN(CCCN2c3ccccc3Sc3ccc(C(F)(F)F)cc32)CC1 [Fluphenazine dihydrochloride] | 13.3%
26 | COCCCC/C(=N\OCCN)c1ccc(C(F)(F)F)cc1 [Fluvoxamine maleate] | 44.1%
65 | CC(Cc1cccc(C(F)(F)F)c1)NCCOC(=O)c1ccccc1 (configuration not stated) [Benfluorex] | 72.4%
